Results reported in PubChem BioAssay AID2685 (National Center for Advancing Translational Sciences (NCATS), 2010).
About 2,100 (0.66%) of roughly 320,000 compounds were called active. The inconclusive results got no clear call from the source; some entries with a clear call stand among them for comparison. Calls follow the shape of the dose curve; as a rule, active = well fitted inhibition curve with a large enough effect in the signal ratio, with a control signal flat (not every such curve was filed as active); inconclusive = small, poorly fitted or top-dose-only effect, or effect the other way, or a change in a side signal; inactive = flat fitted curve, though single readings scatter; the % refers to the signal ratio. A potency beside an inconclusive call is a rough fit, not a confirmed value.
% is scaled to controls: 0 for no effect and ±100 for the full control effect; potency is read from the fitted curve at half-maximal effect.

Test: qHTS Assay for Lipid Storage Modulators in Drosophila S3 Cells
Conditions: BODIPY lipid droplet fluorescence, 18-24 h, cells fed with added oleic acid; lipid storage change, negative = inhibition: at 46.1 µM (top of the series) unless noted
Procedure, shortened: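 Drosophila S3 cells loaded with oleic acid (400 uM, as added) and compounds at several concentrations; lipid droplets imaged by 488-nm laser-scanning cytometry, 500–530 nm intensity and object ratio to cell channel. Percent activity normalized to 20 uM Triacsin C.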
In the case of `COCCC(=O)N1CCCC(C(=O)c2ccc(Oc3ccccc3)cc2)C1` (stereo not drawn), the lipid storage change, negative = inhibition is reported as inconclusive: -18.3%. For `Cc1cccc(NC(=O)Nc2ccc(S(=O)(=O)Nc3onc(C)c3C)cc2)c1`, the Potency was inconclusive: 18.4 µM [activator, partial curve]. With `O=C(NCCN1CCCCC1)c1ccc(/C=N/O)nc1` the lipid storage change, negative = inhibition was inconclusive: -5.16%. In the case of `Fc1cc(F)cc(Nc2nc(Cl)nc(NC3CCCC3)n2)c1`, the Potency is reported as inconclusive: 5.17 µM [cytotoxic, single point]. With `Cc1nc2oc(C(=O)c3ccc(Br)cc3)c(N)c2c2c1COC(C)(C)C2` the lipid storage change, negative = inhibition was inconclusive: -2.44%. In the case of `CCN(CC(=O)Nc1ccc2c(c1)OCO2)S(=O)(=O)c1ccccc1`, the Potency is reported as inconclusive: 6.51 µM [activator, single point]. In the case of `CCNC(=S)N(CCc1c(C)[nH]c2ccc(C)cc12)Cc1ccco1`, the Potency is reported as inconclusive: 1.64 µM [activator, full curve, poor fit]. For `CCc1nn(CC(=O)NCCCN(CC)CC)c(=O)c2cc3sc(C)cc3n12`, the lipid storage change, negative = inhibition was “inactive”. With `Cn1c(=O)c2c(nc(NNC(=O)C(F)(F)F)n2C)n(C)c1=O` the lipid storage change, negative = inhibition was inconclusive: 45.8%. In the case of `O=C1c2ccccc2C(=O)N1CCSc1n[nH]c(=S)s1`, the Potency is reported as inconclusive: 0.0184 µM [falling, full curve, poor fit]. For `CC1CCC2(CC1)NC(=O)N(NC(=O)c1cc3ccccc3o1)C2=O` (stereo not drawn), the Potency was inconclusive: 5.17 µM [activator, full curve, poor fit]. For `COc1ccc(N(C(=O)CNS(=O)(=O)c2ccccc2)C(C(=O)NCc2ccco2)C(C)C)cc1` (stereo not drawn), the lipid storage change, negative = inhibition was inconclusive: -21.7%. With `CSc1ccc(/C=N/NC(=O)c2cccs2)cc1` the lipid storage change, negative = inhibition was inconclusive: -0.403%. For `COc1ccc2c(c1)OC[C@H]1[C@H]2N2C(=O)CN(Cc3ccco3)C(=O)[C@@]2(C)[C@H]1c1ccccc1`, the Potency was inconclusive: 0.0046 µM [activator, full curve, poor fit]. For `CC(OC(=O)CN1C(=O)NC2(CCCC2)C1=O)C(=O)Nc1cccc(Cl)c1` (stereo not drawn), the lipid storage change, negative = inhibition was inconclusive: -16.7%. For `O=C(CSc1nnc2c3ccccc3c3ccccc3c2n1)Nc1ccccc1`, the lipid storage change, negative = inhibition was inconclusive: -35.4%. In the case of `CCOC(=O)C1CCCN(c2ncnc3c2cnn3-c2ccc(Cl)cc2)C1` (stereo not drawn), the lipid storage change, negative = inhibition is reported as inconclusive: 46.8%. For `O=C(CSc1nc(-c2ccccc2)cc(C(F)(F)F)n1)N1CCOCC1`, the lipid storage change, negative = inhibition was inconclusive: 42.9%. For `CC(C)C(=O)N1CCN(c2nc(-c3ccccc3)c3c(c2C#N)CCCC3)CC1`, the lipid storage change, negative = inhibition was inconclusive: 3.28%. In the case of `Cc1cc(=O)oc2c3c(cc(OCC(=O)NCc4ccccn4)c12)OC(C)(C)CC3`, the lipid storage change, negative = inhibition is reported as inconclusive: -72.6%. With `O=C(O)C1CCCN1S(=O)(=O)c1ccc(Br)cc1` (stereo not drawn) the lipid storage change, negative = inhibition was inconclusive: -14.9%. For `Cc1ccc(CN2CCN(/N=C\C(Br)=C\c3ccccc3)CC2)cc1`, the Potency was inconclusive: 20.6 µM [falling, single point]. With `Cc1cc(N2CCCC(C(=O)Nc3ccc4c(c3)CCC4)C2)n2ncnc2n1` (stereo not drawn) the lipid storage change, negative = inhibition was inconclusive: 28.3%. With `NC(=S)N/N=C1\CC(c2ccc3c(c2)OCCCO3)Oc2ccc(F)cc21` (stereo not drawn) the lipid storage change, negative = inhibition was inconclusive: -28.8%. For `CC(C)(C)NC(=O)NC(=O)CN1C(=O)NC(c2ccccc2)(c2ccccc2)C1=O`, the lipid storage change, negative = inhibition was inconclusive: 6.11%. For `CCN1CCN(c2cc(C)c3cc(NC(=S)N4CCCC4)ccc3n2)CC1`, the lipid storage change, negative = inhibition was inconclusive: 22.7%. For `CN(C(=O)CSc1nnc(-c2ccncc2)n1C)C1CCS(=O)(=O)C1` (stereo not drawn), the lipid storage change, negative = inhibition was inconclusive: -4.5%. In the case of `N#Cc1ccc(CN2CCN(C(=O)CNS(=O)(=O)c3ccc4c(c3)OCCCO4)CC2)cc1`, the Potency is reported as inconclusive: 0.731 µM [falling, single point]. For `CC(NC(=O)CCCc1nnc2n(C)c(=O)c3sccc3n12)c1ccccc1` (stereo not drawn), the Potency was inconclusive: 6.51 µM [cytotoxic, partial curve, poor fit]. For `CCOC(=O)COc1ccc(-c2nnc(-c3ccccc3)o2)cc1`, the Potency was inconclusive: 0.731 µM [falling, full curve, poor fit]. In the case of `CC(C)OCCCNc1nc2c(-c3ccccc3)nnn2c2ccccc12`, the lipid storage change, negative = inhibition is reported as inconclusive: 20.4%. In the case of `Cc1ccnc(NS(=O)(=O)c2ccc3c(c2)CCO3)c1`, the lipid storage change, negative = inhibition is reported as inconclusive: 38%. In the case of `CCCN1C(=O)C(O)(C2COC(C)(C)CC2=O)c2ccccc21` (stereo not drawn), the lipid storage change, negative = inhibition is reported as inconclusive: -3.53%. In the case of `CC/C(=N\NC(=O)c1ccccc1Cl)c1ccc(Br)s1`, the lipid storage change, negative = inhibition is reported as inconclusive: 24.4%. For `O=C(c1cc(-c2cccc(Cl)c2)on1)N1CCCC1`, the lipid storage change, negative = inhibition was inconclusive: 10.8%. In the case of `Cc1ccc2oc(C(=O)N3CCC(C(N)=O)(N4CCCCC4)CC3)c(C)c2c1`, the Potency is reported as active: 18.4 µM. For `CCOC(=O)c1[nH]cnc1N=Nc1c(O)ccc2ccccc12`, the lipid storage change, negative = inhibition was inconclusive: -26.2%. With `O=C(c1ccc(F)cc1)N1CCCC(c2nc(-c3ccncc3)no2)C1` (stereo not drawn) the lipid storage change, negative = inhibition was inconclusive: 2.13%. In the case of `Cc1ccccc1-n1c(O)c(/C=N/N2CCCCC2c2cccnc2)c(=O)[nH]c1=O` (stereo not drawn), the lipid storage change, negative = inhibition is reported as inconclusive: 78%. In the case of `COC(=O)c1ccc(CN2CCCC(C(=O)Nc3cccc(-n4cccn4)c3)C2)cc1` (stereo not drawn), the Potency is reported as inconclusive: 2.31 µM [activator, partial curve]. In the case of `COc1ccc(CN2CCC(N3CC(C)OC(C)C3)CC2)c(OC)c1OC` (stereo not drawn), the lipid storage change, negative = inhibition is reported as inconclusive: -29.9%. For `c1ccc(CCOn2ccnc2)cc1`, the lipid storage change, negative = inhibition was inconclusive: 11.5%. For `CCOc1cc(C#N)c(NC(=O)Cn2nnc3ccccc32)cc1OCC`, the lipid storage change, negative = inhibition was inconclusive: 10.9%. For `CNS(=O)(=O)c1c(C)cc(C)c(N(C)S(=O)(=O)c2ccccc2)c1C`, the Potency was inconclusive: 0.0046 µM [falling, full curve, poor fit]. In the case of `COc1cc(/C=N/n2cnnc2)ccc1OCCOc1ccccc1`, the lipid storage change, negative = inhibition is reported as inconclusive: 35.1%. In the case of `Cc1c(C(=O)N2CCN(C3CCS(=O)(=O)C3)CC2)oc2ccc(Cl)cc12` (stereo not drawn), the lipid storage change, negative = inhibition is reported as inconclusive: -16.6%. In the case of `Cc1cc2c(c(=O)n1Cc1cccnc1)C(Cc1ccccc1)C(C#N)=C(N)O2` (stereo not drawn), the lipid storage change, negative = inhibition is reported as inconclusive: 10.7%. With `CCc1ccccc1NS(=O)(=O)c1ccc(OC)c2ncccc12` the Potency was inconclusive: 20.6 µM [falling, single point].
